Here are results for six molecules from PMC8112863.

The chains behind the UniProt entries cited, without tags or fusion partners.
UniProt Q9NRX1: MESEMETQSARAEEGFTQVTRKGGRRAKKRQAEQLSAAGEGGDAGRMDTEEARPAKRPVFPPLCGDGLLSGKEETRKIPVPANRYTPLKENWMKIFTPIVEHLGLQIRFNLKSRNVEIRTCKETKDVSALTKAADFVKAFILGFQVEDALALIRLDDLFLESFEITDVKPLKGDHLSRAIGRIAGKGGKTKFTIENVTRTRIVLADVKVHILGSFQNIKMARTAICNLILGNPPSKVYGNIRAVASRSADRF
UniProt Q9Y5T5: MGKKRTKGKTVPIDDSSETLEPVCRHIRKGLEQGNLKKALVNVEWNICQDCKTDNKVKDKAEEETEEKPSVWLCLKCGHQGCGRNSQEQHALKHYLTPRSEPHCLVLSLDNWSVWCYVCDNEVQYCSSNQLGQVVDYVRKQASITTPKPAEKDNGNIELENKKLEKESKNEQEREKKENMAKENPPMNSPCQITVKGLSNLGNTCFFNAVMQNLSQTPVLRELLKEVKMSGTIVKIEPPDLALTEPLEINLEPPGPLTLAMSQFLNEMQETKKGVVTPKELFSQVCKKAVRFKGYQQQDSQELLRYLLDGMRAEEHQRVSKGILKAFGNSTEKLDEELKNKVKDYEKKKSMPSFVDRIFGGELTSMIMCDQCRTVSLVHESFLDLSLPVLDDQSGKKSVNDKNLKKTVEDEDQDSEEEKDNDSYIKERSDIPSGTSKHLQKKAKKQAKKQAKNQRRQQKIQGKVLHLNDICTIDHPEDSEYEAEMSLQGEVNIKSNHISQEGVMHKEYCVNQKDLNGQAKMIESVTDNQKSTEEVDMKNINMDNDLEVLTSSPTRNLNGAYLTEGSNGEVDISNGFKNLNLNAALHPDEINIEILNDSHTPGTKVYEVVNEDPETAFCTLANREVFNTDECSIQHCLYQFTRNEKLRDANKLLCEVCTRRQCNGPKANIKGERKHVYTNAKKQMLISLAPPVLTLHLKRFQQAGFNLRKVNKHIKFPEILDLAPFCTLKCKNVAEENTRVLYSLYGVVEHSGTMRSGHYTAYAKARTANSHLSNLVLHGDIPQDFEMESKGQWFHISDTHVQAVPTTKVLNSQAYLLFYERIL

The chains are these.
T1: RIO1(kd)-StHA, catalytically inactive RIO1 mutated on aspartic acid 324 (D324A) (human) (UniProt Q9BRS2)
T1 sequence: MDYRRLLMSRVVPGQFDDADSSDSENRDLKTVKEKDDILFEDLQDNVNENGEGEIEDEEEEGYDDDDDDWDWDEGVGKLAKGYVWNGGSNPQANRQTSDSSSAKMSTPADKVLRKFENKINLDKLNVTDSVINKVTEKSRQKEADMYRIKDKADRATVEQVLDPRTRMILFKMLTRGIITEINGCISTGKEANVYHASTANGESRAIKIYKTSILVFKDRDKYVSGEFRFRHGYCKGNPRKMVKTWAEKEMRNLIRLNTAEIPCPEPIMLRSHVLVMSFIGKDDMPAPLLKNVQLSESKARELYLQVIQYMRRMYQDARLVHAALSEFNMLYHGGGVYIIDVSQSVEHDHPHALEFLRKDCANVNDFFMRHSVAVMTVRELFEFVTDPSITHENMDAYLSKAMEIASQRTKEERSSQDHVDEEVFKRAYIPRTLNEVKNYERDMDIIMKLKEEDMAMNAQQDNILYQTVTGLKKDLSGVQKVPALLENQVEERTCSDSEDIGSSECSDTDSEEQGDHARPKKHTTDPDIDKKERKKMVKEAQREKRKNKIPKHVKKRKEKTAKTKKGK

B1: TSR1 (protein, UniProt Q2NL82 1-804)
chain: MAAHRPGPLKQQNKAHKGGRHRGRGSAQRDGKGRLALKTLSKKVRKELSRVDQRHRASQLRKQKKEAVLAEKRQLGGKDGPPHQVLVVPLHSRISLPEAMQLLQDRDTGTVHLNELGNTQNFMLLCPRLKHRWFFTSARPGDLHVVLDMAKVADTILFLLDPLEGWDSTGDYCLSCLFAQGLPTYTLAVQGISGLPLKKQIDTRKKLSKAVEKRFPHDKLLLLDTQQEAGMLLRQLANQKQQHLAFRDRRAYLFAHAVDFVPSEENNLVGTLKISGYVRGQTLNVNRLLHIVGYGDFQMKQIDAPGDPFPLNPRGIKPQKDPDMAMEICATDAVDDMEEGLKVLMKADPGRQESLQAEVIPDPMEGEQTWPTEEELSEAKDFLKESSKVVKKVPKGTSSYQAEWILDGGSQSGGEGDEYEYDDMEHEDFMEEESQDESSEEEEEYETMTIGESVHDDLYDKKVDEEAEAKMLEKYKQERLEEMFPDEVDTPRDVAARIRFQKYRGLKSFRTSPWDPKENLPQDYARIFQFQNFTNTRKSIFKEVEEKEVEGAEVGWYVTLHVSEVPVSVVECFRQGTPLIAFSLLPHEQKMSVLNMVVRRDPGNTEPVKAKEELIFHCGFRRFRASPLFSQHTAADKHKLQRFLTADMALVATVYAPITFPPASVLLFKQKSNGMHSLIATGHLMSVDPDRMVIKRVVLSGHPFKIFTKMAVVRYMFFNREDVLWFKPVELRTKWGRRGHIKEPLGTHGHMKCSFDGKLKSQDTVLMNLYKRVFPKWTYDPYVPEPVPWLKSEISSTVPQGGME
B2: EIF1AD (protein, UniProt Q8N9N8 1-165)
chain: MSQATKRKHVVKEVLGEHIVPSDQQQIVRVLRTPGNNLHEVETAQGQRFLVSMPSKYRKNIWIKRGDFLIVDPIEEGEKVKAEISFVLCKDHVRSLQKEGFWPEAFSEVAEKHNNRNRQTQPELPAEPQLSGEESSSEDDSDLFVNTNRRQYHESEEESEEEEAA
B3: NOB1 (enzyme, UniProt Q9ULX3 1-412)
chain: MAPVEHVVADAGAFLRHAALQDIGKNIYTIREVVTEIRDKATRRRLAVLPYELRFKEPLPEYVRLVTEFSKKTGDYPSLSATDIQVLALTYQLEAEFVGVSHLKQEPQKVKVSSSIQHPETPLHISGFHLPYKPKPPQETEKGHSACEPENLEFSSFMFWRNPLPNIDHELQELLIDRGEDVPSEEEEEEENGFEDRKDDSDDDGGGWITPSNIKQIQQELEQCDVPEDVRVGCLTTDFAMQNVLLQMGLHVLAVNGMLIREARSYILRCHGCFKTTSDMSRVFCSHCGNKTLKKVSVTVSDDGTLHMHFSRNPKVLNPRGLRYSLPTPKGGKYAINPHLTEDQRFPQLRLSQKARQKTNVFAPDYIAGVSPFVENDISSRSATLQVRDSTLGAGRRRLNPNASRKKFVKKR

Results are given in words; binding and its absence hold for the method and conditions named. Binding seen in cells or lysates may run through a third protein. A yes stands for co-enrichment or nearness to the bait. Other partners may have been found.

One assay has as its target T1, RIO1(kd)-StHA, catalytically inactive RIO1 mutated on aspartic acid 324 (D324A) (human). The assay can be described thus: affinity purification with mass spectrometry; StHA-tagged bait captured from HEK293 lysate on anti-HA affinity gel, washed with TAP buffer (20 mM Tris-HCl pH 7.6, 100 mM KCl, 2 mM MgCl2, 1 mM DTT), label-free nano-LC-MS/MS; for the comparative analysis cells treated with scramble or RPS26 siRNA.
With B1, the binding result is “binds”.

With B2, the binding entry is “binds”.

Regarding B3, the binding result was “binds”.

The target is the same in another assay. The description is as above. The source holds these as a separate data set.
DIM2 (from UniProt Q9NRX1 1-252): the binding entry is given as “binds”.

Consider eIF4A (human (endogenous in HEK293)), for which the binding result was “binds”.

For “USP16 (from UniProt Q9Y5T5 1-823) (enzyme)”, the binding result is “binds”.
